Where a chain is given by its changes, count along the chain named. Names and notes keep the numbering of the source. Results are given in words; binding and its absence hold for the method and conditions named. For some assays here: Binding seen in cells or lysates may run through a third protein. Some entries that bind do so weakly or less than the wild type. For some assays here: Where a sequence is shown, tags or fusion partners need not be part of it.
Experiments:
[1] = biological target: TRIM21 (endogenous) (human (endogenous in SUNE1 and HK1)) (UniProt P19474); assay: co-IP; endogenous proteins in SUNE1 and HK1 lysates; anti-USP18 or anti-TRIM21 antibody overnight at 4 °C, Protein A/G magnetic beads, western blot
[2] = biological target: T1, USP18 (endogenous) (human (endogenous in SUNE1 and HK1)) (UniProt Q9UMW8); assay: as above
T1 sequence: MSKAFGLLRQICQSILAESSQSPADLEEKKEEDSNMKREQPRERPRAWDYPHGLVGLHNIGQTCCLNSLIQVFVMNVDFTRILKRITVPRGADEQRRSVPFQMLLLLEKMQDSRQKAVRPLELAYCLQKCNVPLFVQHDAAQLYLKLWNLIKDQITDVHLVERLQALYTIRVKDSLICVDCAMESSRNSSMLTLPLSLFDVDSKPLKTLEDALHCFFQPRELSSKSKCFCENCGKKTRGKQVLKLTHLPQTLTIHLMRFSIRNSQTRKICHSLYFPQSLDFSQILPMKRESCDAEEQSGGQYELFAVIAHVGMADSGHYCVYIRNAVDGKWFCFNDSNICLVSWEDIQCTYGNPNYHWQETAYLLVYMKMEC

Chains of the proteins cited; added tags and fusions are not shown.
UniProt P19474: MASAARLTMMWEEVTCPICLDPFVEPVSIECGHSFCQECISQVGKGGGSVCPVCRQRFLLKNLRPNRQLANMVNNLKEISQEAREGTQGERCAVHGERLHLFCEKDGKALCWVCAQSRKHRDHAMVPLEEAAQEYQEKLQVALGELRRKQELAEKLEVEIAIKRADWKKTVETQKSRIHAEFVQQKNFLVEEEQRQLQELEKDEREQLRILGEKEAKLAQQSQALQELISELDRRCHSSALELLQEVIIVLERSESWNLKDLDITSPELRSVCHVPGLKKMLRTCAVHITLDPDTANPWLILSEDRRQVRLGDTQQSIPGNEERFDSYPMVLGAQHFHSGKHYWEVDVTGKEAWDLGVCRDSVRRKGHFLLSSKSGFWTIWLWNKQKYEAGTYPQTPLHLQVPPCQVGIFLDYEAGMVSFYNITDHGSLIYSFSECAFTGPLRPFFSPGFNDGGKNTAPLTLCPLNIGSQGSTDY

TRIM21-Flag (human) [3] = biological target: TRIM21-Flag (human) (UniProt P19474); assay: co-IP; tagged bait (anti-Flag or anti-Myc) from transfected SUNE1 or HEK293T lysates; co-transfected tagged or endogenous partner found by western blot
[4] = biological target: TRIM29 (endogenous) (human (endogenous in SUNE1 and HK1)) (UniProt Q14134); assay: native gel or EMSA; native-PAGE immunoblot (anti-TRIM29 or anti-Myc) of lysates of SUNE1, HK1 or HEK293T cells; with or without USP18 or TRIM21 overexpression
[5] = biological target: TRIM29 (endogenous) (human (endogenous in SUNE1 and HK1)) (UniProt Q14134); assay: cross-linking; cell lysates (SUNE1, HK1 or HEK293T) treated with 5 mM EGS or DSS for 15 min at RT, quenched with 40 mM Tris-HCl, western blot (anti-TRIM29 or anti-Myc); with or without USP18 or TRIM21 overexpression
TRIM21-YFP (human) = TRIM21-YFP (human) (UniProt P19474); assay: FRET or BRET; acceptor (YFP) photobleaching in fixed HEK293T cells co-transfected with CFP and YFP fusions, 24 h after transfection; E_FRET = 1 − (F_prebleach/F_postbleach) of the donor; 10 cells
TRIM21-Flag (human) [6] = biological target: TRIM21-Flag (human) (UniProt P19474); assay: co-IP; anti-Flag IP from WT or USP18-KO SUNE1 and HK1 cells co-transfected with TRIM21-Flag and TRIM29-HA; blot anti-HA
TRIM29-Myc (human) [7] = biological target: T2, TRIM29-Myc (human) (UniProt Q14134); assay: co-IP; anti-Myc IP from SUNE1 and HK1 cells transfected with TRIM29-HA and TRIM29-Myc, with or without USP18-Flag (or TRIM21 overexpression); blot anti-HA
T2 sequence: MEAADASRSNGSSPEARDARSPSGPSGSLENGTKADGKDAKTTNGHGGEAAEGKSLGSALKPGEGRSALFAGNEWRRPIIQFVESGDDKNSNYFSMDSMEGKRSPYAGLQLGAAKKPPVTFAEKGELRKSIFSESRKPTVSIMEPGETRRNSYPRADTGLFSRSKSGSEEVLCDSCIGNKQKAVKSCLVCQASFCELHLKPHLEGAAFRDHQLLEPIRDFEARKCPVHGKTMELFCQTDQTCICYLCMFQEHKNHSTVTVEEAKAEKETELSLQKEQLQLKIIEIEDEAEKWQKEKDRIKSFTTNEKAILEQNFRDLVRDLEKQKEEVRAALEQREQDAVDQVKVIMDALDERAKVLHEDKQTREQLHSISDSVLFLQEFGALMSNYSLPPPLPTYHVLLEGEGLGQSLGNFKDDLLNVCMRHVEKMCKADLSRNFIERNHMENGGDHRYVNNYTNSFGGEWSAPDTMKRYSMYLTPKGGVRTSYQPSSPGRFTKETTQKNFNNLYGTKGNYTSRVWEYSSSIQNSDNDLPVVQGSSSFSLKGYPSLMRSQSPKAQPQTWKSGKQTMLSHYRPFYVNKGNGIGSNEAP

TRIM29-Myc (human) [8] = biological target: T2, TRIM29-Myc (human); assay: native gel or EMSA; native-PAGE immunoblot (anti-TRIM29 or anti-Myc) of lysates of SUNE1, HK1 or HEK293T cells; with or without USP18 or TRIM21 overexpression
TRIM29-Myc (human) [9] = biological target: T2, TRIM29-Myc (human); assay: cross-linking; cell lysates (SUNE1, HK1 or HEK293T) treated with 5 mM EGS or DSS for 15 min at RT, quenched with 40 mM Tris-HCl, western blot (anti-TRIM29 or anti-Myc); with or without USP18 or TRIM21 overexpression
TRIM29-Myc K561R (human) = TRIM29-Myc K561R (human) (UniProt Q14134); assay: as above

B1: TRIM29 (endogenous) (protein, UniProt Q14134 1-588)
chain: T2 sequence
[1]
  binding: binds
[2]
  binding: binds
TRIM21-Flag (human) [3]
  binding: binds
[4]
  binding: binds
[5]
  binding: binds

B2: TRIM29-CFP (protein, UniProt Q14134 1-588)
chain: T2 sequence
TRIM21-YFP (human)
  binding: binds

B3: TRIM29-HA (protein, UniProt Q14134 1-588)
chain: T2 sequence
TRIM21-Flag (human) [6]
  binding: binds

B4: TRIM29-Myc (protein, UniProt Q14134 1-588)
chain: T2 sequence
TRIM29-Myc (human) [7]
  binding: binds
TRIM29-Myc (human) [8]
  binding: binds
TRIM29-Myc (human) [9]
  binding: binds

B5: TRIM29-Myc K561R (protein, UniProt Q14134 1-588)
chain: T2 sequence with K561R
TRIM29-Myc K561R (human)
  binding: binds

From paper PMC13156314
